Measured values: patent US8785488B2 (Exelixis Patent Company LLC, priority 2009, dated 2014)
Structures were worked out from names or drawings and are uncertain.

Protein sequences, listed by entry. Tags and fused reporters are not part of them.
UniProt Q8TDU6, whole entry: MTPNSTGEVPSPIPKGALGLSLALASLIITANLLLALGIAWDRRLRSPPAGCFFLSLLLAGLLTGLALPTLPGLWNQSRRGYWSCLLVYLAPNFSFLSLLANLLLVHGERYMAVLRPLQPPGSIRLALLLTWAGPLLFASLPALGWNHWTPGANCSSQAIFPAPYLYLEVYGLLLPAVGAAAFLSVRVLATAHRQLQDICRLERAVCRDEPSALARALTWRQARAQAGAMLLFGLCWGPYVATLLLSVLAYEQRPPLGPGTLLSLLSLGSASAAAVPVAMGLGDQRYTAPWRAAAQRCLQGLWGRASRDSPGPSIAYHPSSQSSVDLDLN

Target: human TGR5 (h-TGR5) (Homo sapiens, UniProt Q8TDU6)
Assay: TGR5/CRE-Luciferiase Assay (HEK 293 hTGR5/CRE-Luc cells)
Format: cell-based
Details: read-out: CRE-Luc (EC50); h-TGR5 CRE-Luc EC50, Table 1

Structure (SMILES): CC(C)(c1ccc(Cl)c(Cl)c1)c1cnc(S(=O)(=O)Cc2c(F)cccc2Cl)n1-c1ccc(Cl)cc1
- EC50: 100 to 1000 nM

Structure (SMILES): CC(C)(c1ccc(Cl)c(Cl)c1)c1cnc(CSc2ccc(F)cc2Cl)n1-c1ccc(F)cc1
- EC50: 100 to 1000 nM
